# Among all 140,000 compounds or so, about 4,300 (3.1%) were called active. Inconclusive means that the source gave no clear call. Such entries were picked first, then a sample of the others.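 How the source made its calls: active means readout at or below -70, meaning at least 70% loss of cells showing the perinucleolar compartment, a nuclear body marking cancer cells; inconclusive means readout between -30 and a set limit; inactive means the rest.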
# Experiment: High Content Assay for Compounds that inhibit the Assembly of the Perinucleolar Compartment;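 further: plate controls were DMSO wells for no effect and camptothecin positive control wells for full effect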
# Conditions: PC3M PTB-GFP, PNC prevalence imaging, 16 h; at 10 µM; hits give low values
# Summary of the method: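 Read-out is percentage of cells bearing a perinucleolar compartment, from automated 20x imaging of fixed, Hoechst-stained PC3M PTB-GFP cells. Cells were seeded 4 h, then exposed 16 h to compound (23 nl of library stock) in duplicate plates.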
row,Compound,"activity change (PNC), negative = inhibition"
1,CC1CCCC(C)N1C(=O)Cn1cc(/C=C2/C(=O)Nc3ccccc32)c2ccccc21 (stereo not given),inactive: 0.206%
2,Cc1nc2sccc2c(=O)n1-c1cccc(Cl)c1,inactive: -19.8%
3,COc1ccc(S(=O)(=O)N2CCN(CC(=O)Nc3cc(C(F)(F)F)ccc3Cl)CC2)cc1,inactive: 83.4%
4,COc1cc(NC(=O)CCc2ccccc2)nc(OC)n1,inconclusive: -31.8%
5,CCOc1ccc(NC(=O)CCC(=O)O)cc1,inconclusive: -38.7%
6,CCCn1c(SCC(=O)Nc2sc(C)c(C)c2C#N)nnc1C(C)C,inconclusive: -35.5%
7,CCN(C(=O)CSc1nnnn1-c1ccccc1)c1c(N)n(Cc2ccccc2)c(=O)[nH]c1=O,inconclusive: -46.7%
8,O=C(CSc1nnnn1-c1ccccc1)NC1CCCc2ccccc21 (stereo not given),inactive: 27.5%
9,CCCn1c(SCC(=O)NCc2ccco2)nnc1C(C)C,inconclusive: -65.8%
10,CC1CCCN(Cc2nc3c(c(=O)n(C)c(=O)n3C)n2CCc2ccccc2)C1 (stereo not given),inconclusive: -34.8%
11,COc1ccccc1NC(=O)Cn1nnc(C(=O)Nc2ccccc2)c1N,inconclusive: -67.3%
12,COCCNC(=O)C(c1ccc(C)o1)N(Cc1ccccc1)C(=O)Cn1nnc2ccccc21 (stereo not given),active: -83.4%
13,O=C(C1CC1)N1CCc2cc(Br)cc(S(=O)(=O)N3CCN(c4ccccn4)CC3)c21,inconclusive: -50.1%
14,COC(=O)CCS(=O)(=O)c1cc(Cl)ccc1Cl,active: -138%
15,Oc1csc(Cc2nc(-c3ccc4ccccc4c3)cs2)n1,inconclusive: -30.5%
16,CCN(CC)c1ccc2c(c1)oc(=O)c1c(Cl)cc(=O)oc12,inactive: -3.87%
17,CCn1c(SCC(=O)N/N=C/C=C/c2ccccc2[N+](=O)[O-])nnc1-c1ccc(Cl)cc1,inconclusive: -53.3%
18,COc1ccc(OC)c(NC(=O)c2c(NC(=O)CNCc3ccco3)sc3c2CCC3)c1,inconclusive: -40.8%
19,Cc1ccc(NC(=O)c2cnn(C)c2)cc1[N+](=O)[O-],inconclusive: -59.9%
20,CCOc1ccc(NC(=O)COC(=O)C23CC4CC(CC(C4)C2)C3)c([N+](=O)[O-])c1,inactive: 17.7%
21,COc1ccc(NC(=O)CN2CCCCC2)c([N+](=O)[O-])c1,active: -90.4%
22,CC1(C)CC(=O)C(Sc2nnc(-c3ccc(O)cc3)n2CC2CCCO2)C(=O)C1 (stereo not given),inconclusive: -77.8%
23,CCCC(=O)Nc1cc(-c2nc3ncccc3o2)ccc1C,inconclusive: -39.2%

row,Compound,"activity change (PNC), negative = inhibition"
1,NC(=O)NCc1ccc(C(=O)OCc2ccncc2)cc1,inconclusive: -53.4%
2,COc1cc2c(cc1OC)CN(C(=O)NS(=O)(=O)c1ccc(C)cc1)CC2,inconclusive: -51.8%
3,COCCCNC(=O)CNC(=S)N(Cc1cc(OC)c(OC)c(OC)c1)C1CCCC1,inconclusive: -39.6%
4,CC1CCN(c2cc(N3CCN(C(=O)c4ccc(F)c(F)c4)CC3)c([N+](=O)[O-])cc2F)CC1,inconclusive: -36.4%
5,COc1ccc(N2CCN(C(=O)c3ccncc3)CC2)cc1,inconclusive: -65.1%
6,COC(=O)c1ccc(CSc2ccccc2C)o1,active: -112%
7,FC(F)(F)c1nnc2ccc(N3CCCCCC3)nn12,inconclusive: -51.9%
8,CCC(=O)N(Cc1ccc(S(N)(=O)=O)cc1)C1CC(=O)N(c2ccc(OC)cc2)C1=O (stereo not given),inconclusive: -70.4%
9,CCS(=O)(=O)N1CCCC(C(=O)NCCCN(C)Cc2ccccc2)C1 (stereo not given),inconclusive: -47.4%
10,CCC1C(C#N)=C(N)OC2=C1C(=O)CC(C)(C)C2 (stereo not given),inconclusive: -66.6%
11,O=C(COc1ccccc1)NC(NC(=S)Nc1ccccc1O)C(Cl)(Cl)Cl (stereo not given),inconclusive: -39.3%
12,O=C(CSc1nc(-c2ccc(F)cc2)cs1)N1CCc2ccccc21,inactive: -9.9%
13,c1ccc(OCCCCn2cnc3ccccc32)cc1,inconclusive: -35.6%
14,Cc1cccc(OCC(O)Cn2c(-n3nc(C)cc3C)nc3c2c(=O)[nH]c(=O)n3C)c1 (stereo not given),inconclusive: -54.1%
15,Cc1nc2ccccc2n1S(=O)(=O)c1ccc(Br)cc1,active: -109%
16,CCN(C(=O)COC(=O)c1cccnc1Nc1ccccc1F)C1CCS(=O)(=O)C1 (stereo not given),inactive: -17.4%
17,COCCNCCOCCOc1cccc(OC)c1,inconclusive: -60.2%
18,COc1ccc(C(=O)NC(=O)COC(=O)C2COc3ccccc3O2)cc1 (stereo not given),inactive: 6.97%
19,COCCNC(=O)C(c1cccs1)N(C(=O)Cn1nnc2ccccc21)c1ccc(OC)cc1 (stereo not given),inconclusive: -35.5%
20,CCOC(=O)c1c(C)c(C(=O)NCCCOC)c(C)n1C,inactive: 49.5%
21,CC(=O)c1ccc2c3c(cccc13)C(=O)N(c1c(C)nn(C)c1C)C2=O,inconclusive: -31.6%
22,COc1ccc(-c2cnn3c4c(c(C)nc23)CCN4C2CCCC2)cc1OC,inconclusive: -44.3%

# Entries listed so far that have a cyano group (two):
row,Compound,"activity change (PNC), negative = inhibition"
6,CCCn1c(SCC(=O)Nc2sc(C)c(C)c2C#N)nnc1C(C)C,inconclusive: -35.5%
10,CCC1C(C#N)=C(N)OC2=C1C(=O)CC(C)(C)C2 (stereo not given),inconclusive: -66.6%

# Reference: PubChem BioAssay AID2417 (National Center for Advancing Translational Sciences (NCATS), 2010)
